Results are given in words; binding and its absence hold for the method and conditions named. In cells and extracts the contact can be indirect. A result given as binding can be weak or reduced; the word gives no strength.
Target: HA-MITF (S49A) (human) (UniProt O75030)
Test: co-IP; HA-IP from MCF-7 PR cells transfected with the indicated plasmids; with inhibition of OGT or with PUGNAc; SDS-PAGE and immunoblot

Amino acid sequences for entries named in this document (tags omitted). A change or cut given only in a name is not applied to a line headed by its entry.
UniProt O75030: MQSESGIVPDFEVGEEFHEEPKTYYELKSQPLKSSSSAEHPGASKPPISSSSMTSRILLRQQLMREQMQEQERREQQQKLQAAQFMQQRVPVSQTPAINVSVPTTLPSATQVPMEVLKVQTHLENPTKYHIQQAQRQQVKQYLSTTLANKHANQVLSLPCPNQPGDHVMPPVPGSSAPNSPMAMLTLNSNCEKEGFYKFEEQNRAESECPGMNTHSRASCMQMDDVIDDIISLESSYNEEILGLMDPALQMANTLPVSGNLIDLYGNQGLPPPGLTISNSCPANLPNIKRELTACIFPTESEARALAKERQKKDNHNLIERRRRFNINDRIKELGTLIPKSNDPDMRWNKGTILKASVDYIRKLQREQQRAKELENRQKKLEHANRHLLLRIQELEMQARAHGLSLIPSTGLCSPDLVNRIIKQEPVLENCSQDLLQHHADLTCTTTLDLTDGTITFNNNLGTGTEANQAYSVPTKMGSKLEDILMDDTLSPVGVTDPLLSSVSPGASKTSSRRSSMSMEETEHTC
UniProt A9QM74: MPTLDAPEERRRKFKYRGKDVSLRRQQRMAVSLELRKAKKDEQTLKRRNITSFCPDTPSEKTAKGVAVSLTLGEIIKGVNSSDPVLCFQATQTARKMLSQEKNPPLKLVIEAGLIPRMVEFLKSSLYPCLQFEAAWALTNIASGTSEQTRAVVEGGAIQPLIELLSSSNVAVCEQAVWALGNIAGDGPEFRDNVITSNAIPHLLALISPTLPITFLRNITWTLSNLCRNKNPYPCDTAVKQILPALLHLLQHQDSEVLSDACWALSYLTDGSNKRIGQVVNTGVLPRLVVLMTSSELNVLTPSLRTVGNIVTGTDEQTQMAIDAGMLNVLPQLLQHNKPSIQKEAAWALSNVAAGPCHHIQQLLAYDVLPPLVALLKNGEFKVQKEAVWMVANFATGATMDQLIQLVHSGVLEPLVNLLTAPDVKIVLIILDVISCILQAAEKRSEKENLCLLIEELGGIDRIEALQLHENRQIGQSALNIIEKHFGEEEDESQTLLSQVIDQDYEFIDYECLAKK
UniProt O00505: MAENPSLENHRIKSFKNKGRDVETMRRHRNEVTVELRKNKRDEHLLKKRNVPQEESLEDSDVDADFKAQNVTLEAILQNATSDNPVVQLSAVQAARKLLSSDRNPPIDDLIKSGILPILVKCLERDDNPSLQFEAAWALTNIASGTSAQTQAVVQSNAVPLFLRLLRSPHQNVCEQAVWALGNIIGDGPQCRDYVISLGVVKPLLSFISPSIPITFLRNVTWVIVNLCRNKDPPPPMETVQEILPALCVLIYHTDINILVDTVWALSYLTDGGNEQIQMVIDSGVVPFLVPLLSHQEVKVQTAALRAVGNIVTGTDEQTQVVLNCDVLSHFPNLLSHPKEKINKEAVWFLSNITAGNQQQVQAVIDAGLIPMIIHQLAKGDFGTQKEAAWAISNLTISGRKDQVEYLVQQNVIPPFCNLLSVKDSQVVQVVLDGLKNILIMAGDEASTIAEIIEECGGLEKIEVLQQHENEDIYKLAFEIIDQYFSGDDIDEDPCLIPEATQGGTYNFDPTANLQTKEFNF

| Substance | binding |
| --- | --- |
| importin α8 (from UniProt A9QM74 1-516) | binds |
| FLAG-importin α4 (from UniProt O00505 1-521) | binds |
| FLAG-importin α7 (from UniProt O60684 1-536) | binds |

— article PMC11222436
